Experimental data: paper doi:10.1101/2025.01.16.633226
Construct, isoform or probe ends are uncertain for at least one entry. At least one verdict rests on a figure or table, not on a statement of the authors.

Sequences of proteins named here, by UniProt entry; tags and fusion partners are left off. Residues count along the entry.
UniProt Q9BRS8, 70-295: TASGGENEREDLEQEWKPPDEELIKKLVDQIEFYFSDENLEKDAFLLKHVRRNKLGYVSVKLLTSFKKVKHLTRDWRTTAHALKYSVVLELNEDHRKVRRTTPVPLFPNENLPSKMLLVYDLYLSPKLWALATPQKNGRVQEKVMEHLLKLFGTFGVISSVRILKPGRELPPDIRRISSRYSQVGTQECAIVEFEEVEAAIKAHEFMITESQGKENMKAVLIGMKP

Biological target: LARP6 (70-295) (UniProt Q9BRS8)
Test: TR-FRET
Settings: labeled probe; residues 70-295

Sequence: CCACAAAGAGUCUACAUGUCUAGGGUCUAGACAUGUUCAGCUUUGUGG [DIG-A1 (COL1A1 5'SL)]
- binding result: binds
